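Luminescence from an EWS-FLI1 target-promoter (NR0B1) reporter, set against a CMV-promoter reporter, two days after silencing single genes in TC32 Ewing sarcoma cells.
Each siRNA was applied at 20 nM.
A z-score of the log NR0B1-over-CMV signal, less the median of siRNAs with the same seed; more negative means a stronger specific loss of the NR0B1 reporter.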

The strongest results of the screen are mostly left out here.
Sequences are the guide (antisense) strand, without overhang.

With UUCAUCUCCAUCGAACACC against SMOC1 the assay gave seed-corrected z-score -0.0005512.
With UGUGGAGAAAUCAGCAACC against HIST1H4A the assay gave seed-corrected z-score -1.44.
With UUGACUUAAUGUGGGAUGC against B3GALNT2 the assay gave seed-corrected z-score -0.1654.
With UGUUGCACACGGCAAUUCC against CTBP2 the assay gave seed-corrected z-score 1.181.
With UACACUUAUAAUCUACUCG against CD46 the assay gave seed-corrected z-score -1.138.
With UCUUGUCUAGCAACAGCCG against PLEKHG3 the assay gave seed-corrected z-score 0.9294.
With UACUUGACUGUUCUUCAUG against RNMT the assay gave seed-corrected z-score -0.119.
With AUCCUUACCAUGUCACCUG against DZIP3 the assay gave seed-corrected z-score 0.1981.
With ACUUUAUUCAGCUCAAGGC against MAGEB2 the assay gave seed-corrected z-score -0.7863.
With UUUAGUAACAGUGAAGCUC against KRT6A the assay gave seed-corrected z-score -0.2533.
With UACAAGAUAAGGGCAAACC against RDH10 the assay gave seed-corrected z-score 1.218.
With UGCUUGUCCAAUACCAUGG against SBSN the assay gave seed-corrected z-score 0.641.
With UAGGGCUCGAACAUUCUCC against KRT27 the assay gave seed-corrected z-score 0.2821.
With UUCUUUCCUGGAUUCUUUG against COX20 the assay gave seed-corrected z-score -1.045.
With UAAGCUCUCUGCGAAUUGU against MOAP1 the assay gave seed-corrected z-score 0.46.
With AAACGUACACCACCAGGCG against ATG4D the assay gave seed-corrected z-score -0.532.
With AAAAGAGCAAACACGUGGC against LOC729887 the assay gave seed-corrected z-score -0.5115.
With UCUCAUACAAGGUAAAGCG against POLR1E the assay gave seed-corrected z-score 0.8454.
With UAUAUGAAAUUCGCAGACC against GCA the assay gave seed-corrected z-score 0.01751.
With UAACUUCCGAGCACAGUGC against GLS2 the assay gave seed-corrected z-score -0.1224.
With UCUUAGGUCAGAGCUCUGC against C10orf10 the assay gave seed-corrected z-score -0.05233.
With UUUGUAUCCAAAACCAGGC against LTA4H the assay gave seed-corrected z-score -0.8507.
With UUUAGUCUUAUGUUCAGAC against SCYL2 the assay gave seed-corrected z-score 0.1314.
With UGGUCACUAAGAUUCAAGC against HOXC12 the assay gave seed-corrected z-score 0.1345.
With UCACGUUUUUCCACCGAGC against SCN3A the assay gave seed-corrected z-score -1.101.
With AAGGUUACUUGAGGCAUCC against LOC642366 the assay gave seed-corrected z-score -1.631.
With UCACUCAUCACGGAAAACA against CIB3 the assay gave seed-corrected z-score 0.201.
With UGGGUAGCAAAUGCUAUGG against CEP120 the assay gave seed-corrected z-score 0.1132.
With UAUGUACUAACAUCAGAUC against B3GNT2 the assay gave seed-corrected z-score 0.8588.

The first 2 entries again:

siRNA	target gene	seed-corrected z-score
UUCAUCUCCAUCGAACACC	SMOC1	-0.0005512
UGUGGAGAAAUCAGCAACC	HIST1H4A	-1.44

From PubChem BioAssay record AID1159506 (NCATS, 2015).